PubChem BioAssay AID686943 – Drosophila RNAi Screening Center, 2013
The deposit covers about 23,000 reagents; below is a random part of those with a known target gene and a result. 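Extra replicates exist only for a retested subset of genes; insulin dose and duration not given; both raised and lowered dpERK matter.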 Not given: the amount of reagent, the time to read-out.

- Screen: 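Fly genes whose loss alters ERK activation after insulin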 (primary screen)
- System: Drosophila S2R+ haemocyte-like cells expressing YFP-tagged ERK (Rolled)
- Reagent: long dsRNA against Drosophila genes
- Conditions: insulin stimulation versus unstimulated cells; dose and duration not given
- Detection: 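Antibody staining for doubly phosphorylated ERK divided by ERK-YFP signal, as plate z-scores, in insulin-treated and untreated cells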
- Direction: replicate 1, z-score of dpERK with insulin and replicate 2, z-score of dpERK with insulin: higher = more active ERK per ERK-YFP after insulin; replicate 1, z-score of dpERK under basal conditions: higher = more basal active ERK per ERK-YFP; replicate 1, z-score of ERK-YFP with insulin: higher = more YFP-tagged ERK signal

target	amplicon	replicate 1, z-score of dpERK with insulin	replicate 2, z-score of dpERK with insulin	replicate 1, z-score of dpERK under basal conditions	replicate 1, z-score of ERK-YFP with insulin
SmydA-4	DRSC19390	-0.03	-0.25	0.54	0.43
SmydA-4	DRSC21866	0.32	-0.06	-1.14	0.12
CG9922	DRSC16579	0.03	-0.22	-2.24	-0.65
Nup44A	DRSC07248	1.3	1.79	-0.43	-0.33
HnRNP-K	DRSC07585	-0.1	0.67	-0.97	1.2
HnRNP-K	DRSC22734	0.65	0.94	-2.31	0.81
Smg5	DRSC03124	-4.94	-4.36	-0.21	1.84
Rok	DRSC20277	-1.28	0.31	-0.01	-0.16
CG10616	DRSC09750	0.52	0.17	0.3	0.02
CG2604	DRSC12313	-0.5	-0.91	-0.6	0.12
THG	DRSC01896	1.15	0.35	0.42	-0.23
Tdh	DRSC11788	-0.77	0.33	-1.04	0.47
Liprin-alpha	DRSC02132	-0.21	0.33	-0.27	-0.49
CG16974	DRSC02551	1.31	-0.54	-0.06	-0.09
X11L	DRSC19958	0.97	0	1.06	2.26
X11L	DRSC19959	0.66	-0.13	-0.35	0.13
Fnta	DRSC00557	0.58	0.55	-0.75	0.46
CG5104	DRSC11765	0.32	-0.27	2.28	0.36
Sin3A	DRSC07552	3.37	1.93	-2.27	0.31
Sbf	DRSC16852	-0.74	-0.07	0.13	0.35
CG10333	DRSC02036	-0.05	0.52	-0.06	-1.27
Acox57D-p	DRSC04560	0.29	0.08	0.39	0.38
CG8272	DRSC07134	0.46	0.43	0.62	0.26
Yeti	DRSC21138	0.85	0.1	0.87	-0.02
cora	DRSC07597	1.54	0.59	0.89	0.14
cactin	DRSC20576	2.32	1.56	0.54	-0.62
Naus	DRSC06011	-0.04	0.84	-1.42	-0.06
Naus	DRSC06469	-1.61	-0.02	0.03	0.7
Blos3	DRSC09573	2.14	0.99	0.86	-3.2
CG18428	DRSC15326	-0.64	0	0.49	0.34
CG6015	DRSC15948	4.41	2.91	2.9	-2.03
Mdr49	DRSC07466	0.52	1.14	0.59	-1.41
CrebA	DRSC11122	-0.64	0.11	-0.08	0.49
Task7	DRSC16477	0.04	0.23	0.9	0.12
CG15879	DRSC08487	0.22	0.21	-1.49	0.83
Dgp-1	DRSC07400	-0.14	0.61	-0.97	0.56
CG31213	DRSC14312	-0.07	0.24	0.42	0.62
CG31213	DRSC15647	-0.58	0.44	0.16	0.8
CG17472	DRSC02622	0.93	0.62	0.94	-0.65
